# Source: PubChem BioAssay AID493014 (National Center for Advancing Translational Sciences (NCATS), 2011)
# This is one part of the list. Shown are side measurements of this screen, not its main read-out; they come without a call. Compounds called inactive in the main read-out are mostly missing here. Potencies come from curve fits of mixed quality, noted in brackets.
# Assay: qHTS Assay to Find Inhibitors of Chronic Active B-Cell Receptor Signaling
# Settings: ABC-DLBCL IkBa-CBG/CBR reporter, luminescence ratio (green luciferase fused to IkBa over red control in TMD8 lymphoma cells), 4 h
# Outline: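 Cell line TMD8 (human ABC DLBCL), stably expressing tet-inducible CBG68-IkBa fusion and CBR; IMDM/0.5% FBS; cpd up to 46 uM; dox induction, 4 h, 37C/5% CO2; dual luminescence; green/red ratio; MG132 control.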
# [1] = measured here: CBR red luminescence, cell number
# [2] = measured here: IkBa-CBG green luminescence
SMILES,AC50 [1],AC50 [2]
CCCCN(CCCC)C(=S)NC(=O)c1ccccc1Cl,"1.84 µM [rising, partial curve, poor fit]",–
COc1ccc(C(=O)C(CCC(CNC(C)(C)C)C(=O)c2ccc(OC)cc2)CNC(C)(C)C)cc1 (configuration not stated),"1.3 µM [falling, full curve]",–
CC(C)(C)c1ccc(C(=O)CSc2ncn[nH]2)cc1,"29.1 µM [falling, single point]",–
O=C(/C=C/c1ccc(Cl)cc1Cl)NCCSCc1ccccc1,"29.1 µM [falling, single point]",–
CC(=O)CC1(OC(C)=O)C(=O)N(C)c2ccccc21 (configuration not stated),"11.2 µM [falling, partial curve, poor fit]",–
O=C(Nc1ncccc1O)c1ccc(Oc2ccccc2)cc1,"3.98 µM [falling, full curve]",–
O=C(O)c1cccc(NS(=O)(=O)c2cccc3cccnc23)c1,"6.51 µM [rising, partial curve, poor fit]",–
O=C(Cc1ccccc1)NNC(=S)Nc1ccc(Cl)cc1,"29.1 µM [rising, partial curve, poor fit]",–
Cc1cc(NC(=O)c2sc3ccccc3c2O)no1,"6.31 µM [falling, partial curve]",–
C=CC[C@@H](CC(=O)N(CCO)Cc1ccccc1)C(=O)N[C@H](COC(=O)[C@@H](CC=C)Cc1ccc(F)cc1)C(C)(C)C,"25.9 µM [falling, single point]",–
C=CCn1c(SC2CCOC2=O)nc2sc(C)c(C)c2c1=O (configuration not stated),"3.66 µM [rising, full curve, poor fit]","25.9 µM [falling, partial curve, poor fit]"
COc1ccc(-c2ccc3c(c2)S(=O)(=O)c2cccc(C(=O)NCc4ccccc4Cl)c2C3=O)cc1OC,–,"10.3 µM [falling, partial curve, poor fit]"
Cc1ccc(-n2c(Cc3cccc4ccccc34)n[nH]c2=S)c(C)c1,"12.6 µM [rising, partial curve, poor fit]",–
NS(=O)(=O)c1cccc(NC(=O)/C=C/c2cccs2)c1,"14.1 µM [falling, partial curve]",–
COc1ccc2nc3oc(C(=O)N4CCC(C(N)=O)CC4)cc3cc2c1,"1.78 µM [falling, full curve]",–
O=C(Nc1ncc2c(n1)-c1ccccc1CC2)c1ccc(F)cc1,"15.8 µM [falling, partial curve, poor fit]",–
COc1ccccc1/C=C1\S/C(=N/NC(=O)c2cccc(Br)c2)NC1=O,"1.41 µM [falling, full curve]",–
CCCCN(CCCC)CCCNC(=O)C12CN(Cc3ccccc3)CC1C(c1cccc([N+](=O)[O-])c1)=NO2 (configuration not stated),"29.1 µM [falling, single point]",–
CCc1nc(SCC(=O)c2cc(C)ccc2C)n[nH]1,"18.4 µM [falling, single point]",–
C/C(=C\c1ccccc1)C1NC(=O)c2c(sc3c2CCCC3)N1 (configuration not stated),"13 µM [rising, partial curve, poor fit]",–
CCC(CC)NCCOC(=O)c1ccc([N+](=O)[O-])cc1,"1.12 µM [falling, partial curve, poor fit]",–

SMILES,AC50 [1],AC50 [2]
Cc1nc2c(sc(=S)n2Cc2ccco2)c(=O)n1CC(=O)Nc1ccc(F)cc1,"10 µM [falling, partial curve, poor fit]",–
Cc1cc(C)c2c(NC(N)=S)n[nH]c2n1,"22.4 µM [falling, single point]",–
COc1ccccc1N(CC(=O)NC1CCCC1)C(=O)c1oc(C(C)(C)C)cc1C,"25.1 µM [falling, single point]",–
CNc1nc(Sc2cccc(C(F)(F)F)c2)cc(C(F)(F)F)n1,"20 µM [rising, partial curve, poor fit]",–
Cc1ccccc1-n1c(SCc2c(C)noc2C)nnc1-c1c[nH]c2ccccc12,"1.41 µM [rising, full curve, poor fit]",–
O=[N+]([O-])c1cccc(/C=C/c2ccccn2)c1,"0.0891 µM [rising, full curve, poor fit]",–
C/C(=N\NC(=S)NCCc1ccccc1)c1ccc(O)cc1O,"3.55 µM [falling, partial curve, poor fit]",–
CNC(=O)COC(=O)c1ccccc1NC(=O)c1ccco1,"10 µM [falling, partial curve]",–
O=C(COc1ccc(F)cc1)N(Cc1cccc(Br)c1)C1CCS(=O)(=O)C1 (configuration not stated),"10 µM [falling, partial curve, poor fit]",–
Cc1ccc(C(=O)N/N=C\c2sccc2C)cn1,"14.1 µM [falling, partial curve, poor fit]",–
Cc1cccc(C(=O)Oc2ccccc2/C=N/Nc2ccc([N+](=O)[O-])cc2)c1,"1.84 µM [rising, partial curve]",–
CCNC(=O)NC(=O)C(C)Sc1nnc(COc2ccccc2Cl)o1 (configuration not stated),"29.1 µM [rising, single point]",–
O=C(O)c1ccc(N/N=C/c2ccc3c(c2)OCO3)cc1,"0.282 µM [falling, full curve, poor fit]",–
COc1ccc(-n2cnnc2SCC(=O)NCc2cccs2)cc1,"29.1 µM [rising, single point]",–
Cc1cc(S(=O)(=O)NC(C)C)ccc1OCC(=O)N1CCOCC1,"18.4 µM [falling, single point]","23.1 µM [rising, partial curve, poor fit]"
CC(=O)c1ccc(C#CC(C)(C)O)s1,"29.1 µM [rising, single point]",–
Cc1cc(C)c(N=C2SCC(=O)N2Cc2ccco2)c(C)c1,"3.98 µM [rising, single point]",–
COc1cc2c(c(OC)c1OC)-c1ccc(NC(=O)c3ccc(F)cc3)c(=O)cc1[C@@H](NC(C)=O)CC2,"22.4 µM [falling, single point]","22.4 µM [falling, single point]"
N#C/C(=C/c1cccs1)c1ccccn1,"2.51 µM [rising, partial curve, poor fit]",–
CC(=O)c1ccc(N/C=C/C(=O)c2ccc(Br)cc2)cc1,"31.6 µM [rising, partial curve, poor fit]",–
Nc1[nH]c(N=NC(=O)c2ccccc2)c2ccccc12,"1.46 µM [falling, full curve]",–

# One compound at a time (already shown).
# COc1cc2c(c(OC)c1OC)-c1ccc(NC(=O)c3ccc(F)cc3)c(=O)cc1[C@@H](NC(C)=O)CC2 is listed as AC50 [1]: 22.4 µM [falling, single point]; AC50 [2]: 22.4 µM [falling, single point]
# CC(=O)c1ccc(N/C=C/C(=O)c2ccc(Br)cc2)cc1 is listed as AC50 [1]: 31.6 µM [rising, partial curve, poor fit]
# CNC(=O)COC(=O)c1ccccc1NC(=O)c1ccco1 is listed as AC50 [1]: 10 µM [falling, partial curve]
# Cc1cccc(C(=O)Oc2ccccc2/C=N/Nc2ccc([N+](=O)[O-])cc2)c1 is listed as AC50 [1]: 1.84 µM [rising, partial curve]

# More structures follow.

SMILES,AC50 [1],AC50 [2]
CC(C)NC(=S)NN=C1c2ccccc2-c2ccccc21,"12.6 µM [rising, partial curve]","35.5 µM [falling, partial curve, poor fit]"
CCc1nnc(NC(=O)CSc2sc3c(O)cc(=O)[nH]c3c2C#N)s1,"0.562 µM [falling, partial curve, poor fit]",–
COc1ccc(CCN(C(=O)c2cccc(F)c2)C2CC(=O)N(c3ccccc3)C2=O)cc1 (configuration not stated),"0.13 µM [falling, full curve, poor fit]",–
C/C(CC(O)(/C=N/O)c1ccccc1)=N\O (configuration not stated),"0.461 µM [rising, partial curve, poor fit]",–
CCCSc1nc(C)cc(=O)[nH]1,"6.51 µM [falling, single point]",–
O=c1c2ccccc2nnn1CSc1nnc(-c2cccc(S(=O)(=O)N3CCCCC3)c2)o1,"5.8 µM [falling, partial curve, poor fit]",–
CCN(CC)S(=O)(=O)c1ccc2c(c1)c(C(=O)O)cn2C,"2.59 µM [rising, partial curve, poor fit]",–
CCOC(=O)c1ccc(CNC(=O)CSc2nnnn2-c2ccc(Cl)cc2)o1,"2 µM [rising, partial curve, poor fit]",–
Clc1ccc(CNc2cnccn2)cc1Cl,"5.01 µM [rising, partial curve, poor fit]",–
COc1cc(/C=C2/SC(=NCc3ccccc3)N(Cc3ccccc3)C2=O)ccc1O,"7.31 µM [rising, partial curve, poor fit]",–
COCc1cc(=O)[nH]c(/N=C(\N)Nc2ccc(C)cc2C)n1,"31.6 µM [rising, single point]",–
O=C(NCCS(=O)(=O)NCC1CCCO1)c1ccccc1 (configuration not stated),"6.51 µM [falling, partial curve]",–
CCn1c(SCC(=O)Nc2cccc(C)c2)nc2ccccc2c1=O,"14.1 µM [falling, single point]",–
O=C(Nc1cc(N2CCOCC2)ncn1)NC1(C(F)(F)F)Oc2ccccc2O1,"10.3 µM [falling, single point]",–
Cc1cc(Br)cc(C)c1NC(=O)c1ccc(C#N)cc1F,"1.12 µM [rising, full curve, poor fit]",–
COc1cccc(CN(C)C(c2ccccc2)c2ccccc2)c1OC,"35.5 µM [rising, single point]",–
CC1(C)O[C@@H]2[C@H](O1)[C@@H](CO)O[C@H]2n1cc(Br)c(=O)[nH]c1=O,"0.00461 µM [rising, full curve, poor fit]",–
CCOC(=O)C1=NN(c2ccccc2)C2(S1)SC(C(C)=O)=C(C)N2c1ccccc1 (configuration not stated),"0.164 µM [falling, full curve, poor fit]",–
Cc1c(C(=O)Nc2cc(F)cc(F)c2)cnn1-c1ccccc1,"0.631 µM [rising, full curve, poor fit]",–
COc1cc(CNC(C)C23CC4CC(CC(C4)C2)C3)ccc1OCC(=O)NC(C)(C)C (configuration not stated),"12.6 µM [falling, partial curve]",–
N=C1/C(=C\c2ccc(-c3ccc(C(=O)O)cc3)o2)C(=O)N=C2SC=C(c3ccccc3)N12,"2 µM [falling, partial curve, poor fit]",–
